This passage reports binding results from article PMC10032668.

This assay concerns the target V5-tagged PVT1-MP (human). Briefly: proximity ligation; Duolink in situ PLA in fixed HeLa cells co-overexpressing PVT1-MP-V5 and SRSF2-FLAG; anti-V5 rabbit and anti-FLAG mouse antibodies; controls with single or no primary antibody and untransfected cells.

No constants are given. Whether binding was seen depends on the method and setting. Binding seen in cells or lysates may run through a third protein. A result given as binding can be weak or reduced; the word gives no strength. Sequences can lack the tags named with a protein.

B1: FLAG-tagged SRSF2 (protein, UniProt Q01130 1-221)
chain: MSYGRPPPDVEGMTSLKVDNLTYRTSPDTLRRVFEKYGRVGDVYIPRDRYTKESRGFAFVRFHDKRDAEDAMDAMDGAVLDGRELRVQMARYGRPPDSHHSRRGPPPRRYGGGGYGRRSRSPRRRRRSRSRSRSRSRSRSRSRYSRSKSRSRTRSRSRSTSKSRSARRSKSKSSSVSRSRSRSRSRSRSRSPPPVSKRESKSRSRSKSPPKSPEEEGAVSS
Turning to B1, the binding result was “binds”.
